# Laboratory results as given in publication PMC5996148.
# Sequences of proteins named here, by UniProt entry; tags and fusion partners are left off. A change or cut given only in a name is not applied to a line headed by its entry.
# UniProt O43379: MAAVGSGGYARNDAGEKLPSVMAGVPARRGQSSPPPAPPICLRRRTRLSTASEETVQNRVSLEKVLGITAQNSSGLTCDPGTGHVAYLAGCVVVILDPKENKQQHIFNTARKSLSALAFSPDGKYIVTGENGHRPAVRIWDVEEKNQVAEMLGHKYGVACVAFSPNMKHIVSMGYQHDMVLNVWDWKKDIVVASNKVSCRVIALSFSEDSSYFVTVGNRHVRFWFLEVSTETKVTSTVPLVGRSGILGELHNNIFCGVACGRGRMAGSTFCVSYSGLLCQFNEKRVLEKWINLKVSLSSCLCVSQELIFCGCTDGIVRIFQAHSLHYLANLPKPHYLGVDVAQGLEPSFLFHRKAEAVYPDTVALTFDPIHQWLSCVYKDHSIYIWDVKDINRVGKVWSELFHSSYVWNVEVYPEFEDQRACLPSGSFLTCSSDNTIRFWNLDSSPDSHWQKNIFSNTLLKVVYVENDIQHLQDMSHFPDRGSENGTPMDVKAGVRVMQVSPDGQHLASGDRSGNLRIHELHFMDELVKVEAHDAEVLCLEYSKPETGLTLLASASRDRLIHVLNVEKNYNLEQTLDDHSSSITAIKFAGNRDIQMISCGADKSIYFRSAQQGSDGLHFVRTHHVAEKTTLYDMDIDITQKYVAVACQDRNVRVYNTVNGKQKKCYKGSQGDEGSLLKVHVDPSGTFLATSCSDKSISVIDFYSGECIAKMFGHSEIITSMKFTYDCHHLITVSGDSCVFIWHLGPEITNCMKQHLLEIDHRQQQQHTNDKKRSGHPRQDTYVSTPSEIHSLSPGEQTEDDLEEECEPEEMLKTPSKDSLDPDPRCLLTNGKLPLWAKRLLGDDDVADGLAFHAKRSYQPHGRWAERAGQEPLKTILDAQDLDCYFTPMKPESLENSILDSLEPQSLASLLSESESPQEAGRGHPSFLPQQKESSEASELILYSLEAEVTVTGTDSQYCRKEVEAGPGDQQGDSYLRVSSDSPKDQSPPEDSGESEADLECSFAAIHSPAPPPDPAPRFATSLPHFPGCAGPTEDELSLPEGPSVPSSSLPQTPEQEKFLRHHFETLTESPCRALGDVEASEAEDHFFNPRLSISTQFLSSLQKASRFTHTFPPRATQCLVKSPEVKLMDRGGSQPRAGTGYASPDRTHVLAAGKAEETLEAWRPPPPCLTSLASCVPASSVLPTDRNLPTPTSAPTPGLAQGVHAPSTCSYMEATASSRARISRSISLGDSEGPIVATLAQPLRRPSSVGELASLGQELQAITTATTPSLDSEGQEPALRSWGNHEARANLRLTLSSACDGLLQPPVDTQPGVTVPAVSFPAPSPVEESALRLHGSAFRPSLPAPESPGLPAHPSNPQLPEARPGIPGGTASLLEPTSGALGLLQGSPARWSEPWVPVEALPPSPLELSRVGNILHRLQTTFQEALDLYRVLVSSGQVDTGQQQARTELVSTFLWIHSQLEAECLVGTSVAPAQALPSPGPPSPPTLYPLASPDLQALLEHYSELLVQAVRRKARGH
# Several values for one entry are separate records, joined by “and”; a condition that tells them apart may be missing. Equal values may be shown once. The list shows a part of the results. For some assays here: The exact form of the protein is not confirmed.
# Columns and labels:
# Experiment in all cases: protein microarray (ProtoArray v5.0), streptavidin-Alexa Fluor 647
# Details in all cases: 3'-biotin; 20 mM Tris (pH 7.5), 5 mM MgCl2, 100 mM KCl, 0.1% Tween-20, A/T-rich and random oligonucleotide blockers; temperature not stated; high values mean tight binding
# [1] = target: T1, WDR18 (UniProt Q9BV38)
# T1 sequence: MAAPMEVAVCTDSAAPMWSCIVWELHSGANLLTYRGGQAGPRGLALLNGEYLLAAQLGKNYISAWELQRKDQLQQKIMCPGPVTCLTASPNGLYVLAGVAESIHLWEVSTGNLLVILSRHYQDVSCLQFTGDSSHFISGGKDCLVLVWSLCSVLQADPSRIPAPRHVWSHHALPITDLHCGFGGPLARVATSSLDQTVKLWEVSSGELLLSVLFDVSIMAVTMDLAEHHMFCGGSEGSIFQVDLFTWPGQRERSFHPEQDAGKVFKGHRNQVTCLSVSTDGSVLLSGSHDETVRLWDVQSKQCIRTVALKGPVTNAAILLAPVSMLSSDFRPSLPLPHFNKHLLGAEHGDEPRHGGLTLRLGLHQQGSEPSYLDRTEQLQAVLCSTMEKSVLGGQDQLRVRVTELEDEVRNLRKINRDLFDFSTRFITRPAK
# [2] = tested on: WDR23 (human)
# [3] = tested on: WDR24 (human)
# [4] = tested on: WDR25 (human)
# [5] = tested on: WDR31 (human)
# [6] = tested on: WDR34 (human)
# [7] = target: WDR62 (UniProt O43379)
# [8] = tested on: WDR92 (human)
# [9] = tested on: WFDC2 (human)
# [10] = tested on: WFDC6 (human)
# [11] = tested on: WIF1 (human)
# [12] = tested on: WNT1-inducible-signaling pathway protein 1 (human)
# [13] = tested on: WTAP (human)
# [14] = tested on: WW domain-containing oxidoreductase (human)
# [15] = tested on: WWTR1 (human)
# [16] = tested on: Williams-Beuren syndrome chromosomal region 28 protein (human)
# [17] = tested on: XCL1 (human)
# [18] = tested on: XKR8 (human)
# [19] = tested on: XTP3TPA (human)
# [20] = tested on: YIPF1 (human)
sequence,measurement,setting,value
GGGAGGCTGAGGCAGG [G4-1 biotinylated (PQS2)],binding signal,[1],-0.342 z-score
same,binding signal,[2],-0.227 z-score
same,binding signal,[3],-0.323 z-score
same,binding signal,[4],-0.322 z-score
same,binding signal,[5],-0.311 z-score
same,binding signal,[6],-0.332 z-score
same,binding signal,[7],-0.295 z-score
same,binding signal,[8],-0.339 z-score
same,binding signal,[9],-0.326 z-score
same,binding signal,[10],-0.351 z-score
same,binding signal,[11],-0.328 z-score
same,binding signal,[12],-0.335 z-score
same,binding signal,[13],-0.343 z-score and -0.331 z-score
same,binding signal,[14],-0.33 z-score
same,binding signal,[15],-0.322 z-score
same,binding signal,[16],-0.287 z-score
same,binding signal,[17],-0.328 z-score
same,binding signal,[18],-0.266 z-score
same,binding signal,[19],-0.291 z-score
same,binding signal,[20],-0.341 z-score

# Another view of some results above.
sequence | measurement | setting | value
GGGAGGCTGAGGCAGG [G4-1 biotinylated (PQS2)] | binding signal | [2] | -0.227 z-score
same | binding signal | [8] | -0.339 z-score
